For at least one compound, name, drawing or mass did not settle the structure.
Test system: lipid peroxidation
Experiment: Lipid peroxidation inhibition (method of Ohkawa)
Type: biochemical

COc1ccc(C2=C(c3cc(OC)c(OC)c(OC)c3)C(C)(C)N(O)C2(C)C)cc1C=O [Compound 46, 5-(2,5,-dihydro-4-(3,4,5-trimethoxyphenyl)-1-hydroxy-2,2,5,5-tetramethyl-1H-pyrrol-3-yl)-2-methoxybenzaldehyde]
% Lipid Peroxidation inhibition (at 1 uM): 80.1%

Reference: patent US20080280890A1, “HYDROXYLAMINE COMPOUNDS AND METHODS OF THEIR USE” (priority 2007, published 2008)
